PubChem BioAssay AID743454, Peter MacCallum Cancer Centre, 2014
Test: 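Genes whose loss kills vorinostat-resistant colon cancer cells under vorinostat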 (primary screen). Cells: human HCT116-VR colon cancer cells, selected for vorinostat resistance. Knock-down reagent: siRNA pool against human genes, 40 nM siRNA pool. Timing: vorinostat for 24 h, read-out about 72 h after transfection. Conditions: vorinostat at 2.5 µM final. Measured: 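Cell viability by CellTiter-Fluor and caspase 3/7 activity by luminescence, each scaled to mock wells per plate, duplicates averaged, then robust z-scored over all plates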. Reading the numbers: viability robust z-score: higher = more viable cells than screen typical; caspase robust z-score: higher = more caspase 3/7 activity than screen typical. Call rule: 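a knock-down is a hit when classed RV1 or RV2 for lowered viability, or CA1 or CA2 for caspase activation; those lethal without drug were dropped; hits were retested singly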.
Shown is an unselected part of about 18,000 reagents. In the full data, 450 (2.5%) are marked active. 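Single biological run; no consistent viability z cut-off exists, so the class columns, not z-scores, define the calls.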 The numbers tell different reagents against one gene apart.

| target gene | pool no. | viability hit class | caspase hit class | viability robust z-score | caspase robust z-score | activity call |
| --- | --- | --- | --- | --- | --- | --- |
| FHIT (fragile histidine triad diadenosine triphosphatase) | 1 | no change | no change | 0.8 | -0.11 | inactive |
| BCAP29 (B cell receptor associated protein 29) | 1 | no change | no change | -1.48 | 0.1 | inactive |
| C11orf24 (chromosome 11 open reading frame 24) | 1 | no change | no change | -0.46 | 1.26 | inactive |
| HTR3B (5-hydroxytryptamine receptor 3B) | 1 | no change | no change | -0.55 | 0.66 | inactive |
| AHSA2P (activator of HSP90 ATPase homolog 2, pseudogene) | 1 | no change | no change | 0.58 | 0.22 | inactive |
| CRTAC1 (cartilage acidic protein 1) | 1 | no change | no change | 0.57 | -0.43 | inactive |
| DBP (D-box binding PAR bZIP transcription factor) | 1 | no change | no change | 0.27 | 0.02 | inactive |
| ALS2 (alsin Rho guanine nucleotide exchange factor ALS2) | 1 | no change | no change | -0.04 | -0.68 | inactive |
| MAP2K3 (mitogen-activated protein kinase kinase 3) | 1 | no change | no change | -1.76 | 0.04 | inactive |
| HYPK (huntingtin interacting protein K) | 1 | no change | no change | 1.75 | -1.49 | inactive |
| OCM2 (oncomodulin 2) | 1 | no change | no change | 0.14 | 3.04 | inactive |
| CNTN1 (contactin 1) | 1 | no change | no change | 1 | -0.18 | inactive |
| PPP3R2 (protein phosphatase 3 regulatory subunit B, beta) | 1 | no change | no change | 0.24 | -0.74 | inactive |
| MSH6 (mutS homolog 6) | 1 | no change | no change | -0.32 | 1.56 | inactive |
| PCDHB13 (protocadherin beta 13) | 1 | no change | no change | -0.68 | 0.94 | inactive |
| TSPAN5 (tetraspanin 5) | 1 | no change | no change | -0.26 | 0.3 | inactive |
| RGS21 (regulator of G protein signaling 21) | 1 | no change | no change | 1.86 | -0.26 | inactive |
| SMURF2 (SMAD specific E3 ubiquitin protein ligase 2) | 1 | no change | CA2 (caspase activation) | -1.94 | 6.31 | active |
| ZC3H15 (zinc finger CCCH-type containing 15) | 1 | no change | no change | 0.48 | 0.54 | inactive |
| SLC7A9 | 1 | no change | no change | -0.76 | -0.17 | inactive |
| KRTAP10-11 (keratin associated protein 10-11) | 1 | no change | no change | -1.28 | -0.21 | inactive |

An excerpt from above, limited to “caspase robust z-score”:
ALS2 (alsin Rho guanine nucleotide exchange factor ALS2)	-0.68
MAP2K3 (mitogen-activated protein kinase kinase 3)	0.04
HYPK (huntingtin interacting protein K)	-1.49
OCM2 (oncomodulin 2)	3.04
CNTN1 (contactin 1)	-0.18
PPP3R2 (protein phosphatase 3 regulatory subunit B, beta)	-0.74

The list goes on:
| target gene | pool no. | viability hit class | caspase hit class | viability robust z-score | caspase robust z-score | activity call |
| --- | --- | --- | --- | --- | --- | --- |
| SHOX (SHOX homeobox) | 1 | no change | no change | -0.34 | -0.4 | inactive |
| SLC30A7 | 1 | no change | no change | 0.3 | -0.91 | inactive |
| BLCAP (BLCAP apoptosis inducing factor) | 1 | no change | no change | -1.53 | 4.92 | inactive |
| CREBBP (CREB binding lysine acetyltransferase) | 1 | no change | no change | -0.32 | -0.74 | inactive |
| PHOSPHO2 (phosphatase, orphan 2) | 1 | no change | no change | 0.42 | 2.86 | inactive |
| SPAG7 (sperm associated antigen 7) | 1 | no change | no change | -0.15 | -1.05 | inactive |
| SLC26A4 | 1 | no change | no change | 0.51 | -0.82 | inactive |
| SLX4IP (SLX4 interacting protein) | 1 | no change | no change | -0.22 | -0.92 | inactive |
| TMEM121 (transmembrane protein 121) | 1 | no change | no change | -0.34 | 0.93 | inactive |
| C16orf54 (chromosome 16 open reading frame 54) | 1 | RV2 (reduced viability) | no change | -3.13 | 3.58 | active |
| CPNE8 (copine 8) | 1 | no change | no change | 0.12 | -0.42 | inactive |
| FUT9 (fucosyltransferase 9) | 1 | no change | no change | -0.38 | -0.34 | inactive |
| OR52R1 (olfactory receptor family 52 subfamily R member 1) | 1 | no change | no change | -0.54 | -0.84 | inactive |
| CDY2A (chromodomain Y-linked 2A) | 1 | no change | no change | -1.71 | 1.73 | inactive |
| SHOX2 (SHOX homeobox 2) | 1 | no change | no change | -0.08 | 1.04 | inactive |
| EXOSC5 (exosome component 5) | 1 | RV2 (reduced viability) | no change | -3.17 | 1.37 | active |
| CSNK2A1 (casein kinase 2 alpha 1) | 1 | no change | no change | 2.12 | -0.28 | inactive |
| EPN3 (epsin 3) | 1 | no change | no change | 1.62 | 0.73 | inactive |
| MYL12A (myosin light chain 12A) | 1 | no change | no change | 0.78 | -0.58 | inactive |
| ACMSD (aminocarboxymuconate semialdehyde decarboxylase) | 1 | no change | no change | 0.66 | -0.07 | inactive |
| ATRN (attractin) | 1 | no change | no change | -0.08 | -0.32 | inactive |
| ARRDC5 (arrestin domain containing 5) | 1 | no change | no change | 1.2 | 0.56 | inactive |
| C3orf18 (chromosome 3 open reading frame 18) | 1 | no change | no change | 0.23 | 2.28 | inactive |
| ZBTB39 (zinc finger and BTB domain containing 39) | 1 | no change | no change | 0.78 | 0.71 | inactive |
| ARPC1B (actin related protein 2/3 complex subunit 1B) | 1 | no change | no change | 0.26 | 1.56 | inactive |
| GALP (galanin like peptide) | 1 | no change | no change | 0.59 | 0.91 | inactive |
| VPS72 (vacuolar protein sorting 72 homolog) | 1 | no change | no change | 0 | -0.66 | inactive |
| TMEM119 (transmembrane protein 119) | 1 | no change | no change | 2.05 | -0.2 | inactive |
| GRK5 (G protein-coupled receptor kinase 5) | 1 | no change | no change | -0.96 | 0.03 | inactive |
| NBPF1 (NBPF member 1) | 1 | no change | no change | 1.44 | 1.2 | inactive |
| KLHL2 (kelch like family member 2) | 1 | no change | no change | 0.26 | -0.18 | inactive |
| POC1A (POC1 centriolar protein A) | 1 | no change | no change | 0.73 | -0.75 | inactive |
| WNT6 (Wnt family member 6) | 1 | no change | no change | -0.04 | 0.7 | inactive |
| RHOJ (ras homolog family member J) | 1 | no change | no change | 0.54 | -0.8 | inactive |
| SPON1 (spondin 1) | 1 | no change | no change | 1.34 | 1.03 | inactive |
| ALG13 (ALG13 UDP-N-acetylglucosaminyltransferase subunit) | 1 | no change | no change | 0.58 | -0.53 | inactive |
| ALG13 (ALG13 UDP-N-acetylglucosaminyltransferase subunit) | 2 | no change | no change | -0.04 | -0.16 | inactive |
